Data reported in publication PMC12370185.
This is one part of the list. For part of these data: At the low end of the ranking the order means little.

Tests used:
Details in all cases: 10 mM Tris-Cl pH 7.5, 50 mM NaCl, 1 mM DTT, 0.25 mg/ml BSA, 2 mM MgCl2, 0.025% Nonidet P-40, 5% glycerol; 28 nM nucleosome library; 10 min on ice then 30 min …; high values mean tight binding; double strand, one strand shown
[1] = test system: KLF4 + histone octamer; test: EMSA with sequencing
[2] = test system: OCT4 + histone octamer; test: Pioneer-seq (competitive nucleosome EMSA with sequencing)
[3] = test system: SOX2 + histone octamer; test: as above
[4] = test system: c-MYC + MAX + histone octamer; test: as above
[5] = test system: OCT4 + histone octamer; test: EMSA with sequencing
[6] = test system: SOX2 + histone octamer; test: EMSA with sequencing
[7] = test system: KLF4 + histone octamer; test: Pioneer-seq (competitive nucleosome EMSA with sequencing)
[8] = test system: c-MYC + MAX + histone octamer; test: EMSA with sequencing

Row | Sequence | binding signal (log2 relative supershift) [1] | binding signal (log2 relative supershift) [2] | binding signal (log2 relative supershift) [3] | binding signal (log2 relative supershift) [4] | binding signal (log2 relative supershift) [5] | binding signal (log2 relative supershift) [6] | binding signal (log2 relative supershift) [7] | binding signal (log2 relative supershift) [8]
1 | GATGGACCCTATACGCGGCAGGGAGGTGTTTGGGGTTTGGACAGCTGCTCCCTCCTTTAGGGCTGACTGTCCCATCAGGAGGGGGTTGTTTCTGTTGCTCAGTGGGGAATCTGCAGGCCTCGACAGGCTCTGAGCTGGGAAACAGGAGTGGCCCTGCCTGTCCTATGACACACTGTGAGTGGAGGGGGCTGTGGCCGGCAGGGACGTAGGTGCCAGTCGGATAGTGTTCC | 2.56 | -0.642 | -0.629 | -0.033 | – | – | – | –
2 | GATGGACCCTATACGCGGCTGAAACAATCCTTACTCAGAGAGTGGATTTGCATCTCTAATAGAGTTCAGGCTCTGTTTGTGAAAGGCTTTTGCTAGGCCTGACCCCATGTCTCAGGAGCACATTGATACCCAGCGCCTTGCCTTTGCCTTGTCCCACACCACAGAGAGCAGTATCATGGGAAAATGCACTAACCTAAAAGAAAGCAAAGGTGCCAGTCGGATAGTGTTCC | – | – | – | -0.417 | 1.23 | 1.22 | -0.222 | –
3 | GATGGACCCTATACGCGGCATCAAGGGAAGCAGCCCACTGTGGGCACACTCAGAAAGTATGAGTGAGGGGAGGAGGTGTAGCATGGGGAGAAGAGGCCTGGGGTAGCCCCTGGACAGAAGCCCGCTCCTTTCTGCTCTCTGAGGTGTCCACTGATTCAGCCTGTTGGCCTGGCCAGAACCTGCCCTCTTCATGCCTCGGTTTCCCTGGCTTGCCAGTCGGATAGTGTTCC | 1.93 | -0.313 | -0.65 | -0.582 | – | – | – | –
4 | GATGGACCCTATACGCGGCTGGGGCTCAGTGTTCTGGGAGAAGTGGGTTCTAGCTCTGCCGCTGGGCCCTGGGTGTGGGCGCCCAATCGTCCGGGAAGCGCCCACAAGCCCAGGCAAGTCCCGACAGCGGTAGCCCGAGCCCAAGCGCTGCGGGCCCGGCGTCCCAGTGACCCCAGTTCCGGGTCCGAGGCACCGCCGGCGGCATCTCCCTGCCAGTCGGATAGTGTTCC | 2.35 | -0.914 | -0.738 | -0.0292 | – | – | – | –
5 | GATGGACCCTATACGCGGCTGAAATTTTCCAGAGTTGCTCGGGGATGTCACTCGAATGGAACATTTGGGAGACTGCCAAGACCCATTTGTCAGCATGTACAGGCCTGCCCTGAGAGACCACAAATGATGGGAACTCTTGAAAGGTCTAGGGCAGTAGCCTCCAAGATAGGTCACTCCTATTCCCTGGATTCACAGCCAGCAAGAGCAGTATGCCAGTCGGATAGTGTTCC | 0.953 | -0.207 | -0.214 | -0.108 | – | – | – | –
6 | GATGGACCCTATACGCGGCTTTGGTTTTCCATATTTATATCCTATATACTTGTGTGTACAATGCAAGCTTTGTTATGCTGTATCTGGCCAGTGTTTTCTTCCCTTTACAACAGGCAGTAACTGTAGCTGTGCATAATGTACCTGACAGTGAAGGTGGCTGGCTATTGAAGTCTCTTGTTGGGCAACGTTTGTGCTGGCACAGCCATGGTATGCCAGTCGGATAGTGTTCC | – | – | – | – | 0.504 | 0.692 | -0.0453 | 0.0572
7 | GATGGACCCTATACGCGGCGCTTGAACTCTGAACCTGGTGGGTTGGTTAAGCCAACAAGGGGAAGGAGTCAGTGGAAGTGGGGTTGGGAAAGGGGGCCTCCATGTGTCTGCACCTGCCTGACACTACCTGCCCCATACCACACCCTCCTGACACTGCCCACCCCTACCCCACCCTCCTGACACTGCCTACCCAATACCCCACCCTCCTGTTGCCAGTCGGATAGTGTTCC | 2.08 | -0.768 | -1.17 | -0.0988 | – | – | – | –
8 | GATGGACCCTATACGCGGCTGGGATTTGGGAATGATGTGTGTGAATTAGAGAGATTTCGAGACCTGAAATAGAGAAAAGCAAGTTAAGACATCAACTGGGGCCCAGAAACAGCACTACAGCGGGGACGACCCACCTCTCAGATGCCTGGTGAGATAAAGAAAGGTCTGGCTGACTCCACTGCCCAGTACTGTGAAGCAGCAGTGAAGACTTGCCAGTCGGATAGTGTTCC | – | -0.239 | -0.0493 | -0.089 | – | – | -0.0256 | –
9 | GATGGACCCTATACGCGGCTGGTTCTCTCACCCCAGACACACCAGGGCTGATCCAACATATCTGGCTCAACATCACCCACAAGTCTCAACAGGGCCCTGAAAACCACCTCTGACTCCACAACCCACTGTCCCACGCCCTGGGAGGTAGGCTGTGTCTGGGCTTGCTCACGTCTGGGAACAGCAAAGTCTGGCCCAAGCCTGTTCAGCCTGTGCCAGTCGGATAGTGTTCC | 1.79 | -0.681 | -1.18 | -0.103 | – | – | – | –
10 | GATGGACCCTATACGCGGCGAGTAAACCAGTCTGCCTGTGAGAGTATTGACTGTGGTTAAGAATGCGGGATTGTGTTGCAAAGAAGCTCAGGCCTGTAATGTTATCACTCAGCAGGACTGGGTCCCATCAGAAGGCACATGGTGTGCCATGACGTAGCTGGTCTTCGACCACAAAAGCAGACTTTTCTCTGTGAATTAGACAAACCACACTGCCAGTCGGATAGTGTTCC | – | -0.77 | – | – | – | 0.818 | -0.557 | 0.247
11 | GATGGACCCTATACGCGGCTGCTGGAATGTTCCTGTATTGCCTGCTTTAGCATGTGTGTTGGCAGGGTGTAGATACATACACCCCCACAACGACCCTCCTCCCACCCTATGTAAATGTACTCACTCTACAGCATTGTAAAGGATTTCATTGTGCCATTTTGTTTTCAGAATCATCTTTCACTCTTTTGTGAGTATAATGATAGTAGCTGTTGCCAGTCGGATAGTGTTCC | – | -0.523 | – | – | – | 1.64 | -0.209 | 0.223
12 | GATGGACCCTATACGCGGCTATAGAGATTGAATGGAAGAGTGCCTTGGAAAGTGTCTCTACCAAATGGCACCTGAGCTGAATGTTGTAGAATAAGAGCTGTTCATCAGGATGACAATGGGAGGGGAGGAGGCTGAGATAAAGGCATTTCAAATGGAGGGAATAGCAAAGATGTGGAAGCATGGCCTGTCATTAAACTGCAAGTAGTTCAGTGCCAGTCGGATAGTGTTCC | – | -0.964 | – | – | – | 0.865 | -0.387 | 0.0618
13 | GATGGACCCTATACGCGGCGAATGGTGGCTGGACTCTATTAGGCTCCAAACTCTCATGTGCCTGAGCGCCAGCTCCCTCTCTAAACATAAGCATCTCGGGGCTGGAGGTGGGGGGAAATTTTCTGATGCATCTTTCTTTGCCATGTAATTCCTACCCCAGGATCATGCTCACATAAGTGTTCTTGGAATATGTGAGTAAGTGACTGAAAATGCCAGTCGGATAGTGTTCC | – | – | – | – | 0.00049 | 0.436 | -0.075 | 0.178
14 | GATGGACCCTATACGCGGCCAATAAGGGTGGTCTGGTGCCTTGCTCCAAAAGGCCTTATCAGTAGACCTGAGACGATGGGCTGGGTTGTCTTCATTAACCTCTGAAAGCATGCCTGGGGAAGAAGGGACCAGCCTGGGCTCCGAAGGCCTCCTCAGAACAAGACCCTGCTTGTCCAAGTGCCTCACTCCCGGGTGGCTTGATTTCCAGGATGCCAGTCGGATAGTGTTCC | 2.06 | -0.325 | -0.26 | -0.155 | – | – | – | –
15 | GATGGACCCTATACGCGGCCACTATTTCACGACCTTGCACATAGTTCATTTGTTTCATACATCACACACTGTTGTGTTACGTATTGACATGGCTGTCTTCACAACTAGGCTCTGAGCACCTTAAAGGCTGGGACTGACGCCAGTCACAATCTAATGCAAAGGACAGTGCTGTTATGGAAATGTTTATTGAACTGAACTGAAAATCCTGCCTGCCAGTCGGATAGTGTTCC | – | – | – | -0.172 | 0.289 | 0.904 | -0.403 | –
16 | GATGGACCCTATACGCGGCGAGGAAGAGTCCCAGGGTGATGAGGGTGAGGGTGTGTTCCCTCCCACAATTAATGCCATCACAGTGAGATCTGCCTAATAATAGGATCTCCAGACCCCAGCAAATTGTCTGCTGATCTCAGGCAATGTTTGTCTGTAAGAATCCTTCGCCCTGTGTAAACATTTTATTAGACCATTAAGTTGCCGTCAGCCTGCCAGTCGGATAGTGTTCC | 1.73 | -0.598 | -0.0494 | -0.0649 | – | – | – | –
17 | GATGGACCCTATACGCGGCGATAATTTGGATTTAGGGTAAGGGACAGCGTTGCTCATCTACAGGACCACAAGGGGTTCTGTGCTGCAGGGGCATAAGAAGGAGCATGTGCCATGTGGGGAATGCAGGGAAGCAGGGCAGAGGGACGTAGGAGAGGAAGATTAAGAGCCAAGGGGGAGGGGCAGGCAGGCAGGTCCTTTTCCATCTTTTCATGCCAGTCGGATAGTGTTCC | 1.93 | -0.669 | -0.0472 | -0.601 | – | – | – | –
18 | GATGGACCCTATACGCGGCGGGTCCCCAGAGAATCTCCAGGCACACAAGTGTCTACCACAGATAAAACATCTGGTGCAGATAAGGGAACCTGCACAGGGGCTTGCCTGGACATGCCAGCAGCAGACTGGAGGCCCACATGCACTGGGGAGCTGGGGTGGAGCCACCAAGAATTCATGCCTTATGCAGAGGAGGAGCCTGGCCTCTTCAGCTGCCAGTCGGATAGTGTTCC | 2.13 | -0.873 | -0.665 | -0.218 | – | – | – | –

In a second layout: results already given.
GATGGACCCTATACGCGGCTGAAATTTTCCAGAGTTGCTCGGGGATGTCACTCGAATGGAACATTTGGGAGACTGCCAAGACCCATTTGTCAGCATGTACAGGCCTGCCCTGAGAGACCACAAATGATGGGAACTCTTGAAAGGTCTAGGGCAGTAGCCTCCAAGATAGGTCACTCCTATTCCCTGGATTCACAGCCAGCAAGAGCAGTATGCCAGTCGGATAGTGTTCC
  binding signal (log2 relative supershift) [1] = 0.953; binding signal (log2 relative supershift) [2] = -0.207; binding signal (log2 relative supershift) [3] = -0.214; binding signal (log2 relative supershift) [4] = -0.108
GATGGACCCTATACGCGGCGAGTAAACCAGTCTGCCTGTGAGAGTATTGACTGTGGTTAAGAATGCGGGATTGTGTTGCAAAGAAGCTCAGGCCTGTAATGTTATCACTCAGCAGGACTGGGTCCCATCAGAAGGCACATGGTGTGCCATGACGTAGCTGGTCTTCGACCACAAAAGCAGACTTTTCTCTGTGAATTAGACAAACCACACTGCCAGTCGGATAGTGTTCC
  binding signal (log2 relative supershift) [2] = -0.77; binding signal (log2 relative supershift) [6] = 0.818; binding signal (log2 relative supershift) [7] = -0.557; binding signal (log2 relative supershift) [8] = 0.247
